Experimental findings from PMC7550686 are described below.

These are yes or no findings as the source states them, for the method shown. For some assays here: Binding seen in cells or lysates may run through a third protein. Some results given as binding are weak or reduced against the parent protein; the word gives no strength. Tags and fused reporters may be left off the sequences shown.

The target in experiment [1] is T1, AFP2 (ABI Five Binding Protein2) fused to the LexA DNA binding domain (Arabidopsis thaliana) (UniProt Q9LMX5).
T1 sequence: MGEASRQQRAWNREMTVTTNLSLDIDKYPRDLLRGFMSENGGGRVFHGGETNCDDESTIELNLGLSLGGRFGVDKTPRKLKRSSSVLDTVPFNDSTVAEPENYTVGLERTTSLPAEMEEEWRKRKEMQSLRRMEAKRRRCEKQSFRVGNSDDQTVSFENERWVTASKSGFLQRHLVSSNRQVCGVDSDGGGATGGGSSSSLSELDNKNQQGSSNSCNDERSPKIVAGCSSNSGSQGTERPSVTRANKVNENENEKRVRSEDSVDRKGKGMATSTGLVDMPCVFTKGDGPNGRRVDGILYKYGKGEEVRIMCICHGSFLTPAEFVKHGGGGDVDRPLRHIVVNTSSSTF
As to the kind of experiment: two-hybrid; AFP2 and truncations as LexA DBD baits, SnRK1α1 as B42 AD prey; mated yeast scored on LacZ (X-gal) and LEU (leu-) reporters in parallel, 4 days.

Experiment [2] deals with T2, full-length AFP2 fused to half-YFP (YFP^C-HA-AFP2 or YFP^N fusion) (Arabidopsis thaliana) (UniProt Q9LMX5).
T2 sequence: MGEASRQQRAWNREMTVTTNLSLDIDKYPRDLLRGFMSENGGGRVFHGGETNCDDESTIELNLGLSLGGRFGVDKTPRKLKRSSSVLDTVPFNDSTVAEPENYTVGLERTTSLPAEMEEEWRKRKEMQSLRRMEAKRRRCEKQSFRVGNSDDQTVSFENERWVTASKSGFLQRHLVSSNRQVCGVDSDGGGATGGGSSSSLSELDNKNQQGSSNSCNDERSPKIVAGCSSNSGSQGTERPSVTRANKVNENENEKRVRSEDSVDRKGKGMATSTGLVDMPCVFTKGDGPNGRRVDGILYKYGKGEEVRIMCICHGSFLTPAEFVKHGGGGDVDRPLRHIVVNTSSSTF
As to the kind of experiment: split reporter; BiFC with half-YFP (YFP^N/YFP^C) fusions transiently co-expressed in N. benthamiana leaf epidermal cells, confocal microscopy 72 h after infiltration.

B1: SnRK1α1 fused to the B42 activation domain (enzyme, UniProt Q38997 1-512)
chain: MDGSGTGSRSGVESILPNYKLGRTLGIGSFGRVKIAEHALTGHKVAIKILNRRKIKNMEMEEKVRREIKILRLFMHPHIIRLYEVIETPTDIYLVMEYVNSGELFDYIVEKGRLQEDEARNFFQQIISGVEYCHRNMVVHRDLKPENLLLDSKCNVKIADFGLSNIMRDGHFLKTSCGSPNYAAPEVISGKLYAGPEVDVWSCGVILYALLCGTLPFDDENIPNLFKKIKGGIYTLPSHLSPGARDLIPRMLVVDPMKRVTIPEIRQHPWFQAHLPRYLAVPPPDTVQQAKKIDEEILQEVINMGFDRNHLIESLRNRTQNDGTVTYYLILDNRFRASSGYLGAEFQETMEGTPRMHPAESVASPVSHRLPGLMEYQGVGLRSQYPVERKWALGLQSRAHPREIMTEVLKALQDLNVCWKKIGHYNMKCRWVPNSSADGMLSNSMHDNNYFGDESSIIENEAAVKSPNVVKFEIQLYKTRDDKYLLDLQRVQGPQFLFLDLCAAFLAQLRVL
Regarding B1, in experiment [1], the binding entry was “binds”.

B2: SnRK1α1 fused to half-YFP (YFP^N-myc-SnRK1α1 or YFP^C fusion) (enzyme, UniProt Q38997 1-512)
chain: MDGSGTGSRSGVESILPNYKLGRTLGIGSFGRVKIAEHALTGHKVAIKILNRRKIKNMEMEEKVRREIKILRLFMHPHIIRLYEVIETPTDIYLVMEYVNSGELFDYIVEKGRLQEDEARNFFQQIISGVEYCHRNMVVHRDLKPENLLLDSKCNVKIADFGLSNIMRDGHFLKTSCGSPNYAAPEVISGKLYAGPEVDVWSCGVILYALLCGTLPFDDENIPNLFKKIKGGIYTLPSHLSPGARDLIPRMLVVDPMKRVTIPEIRQHPWFQAHLPRYLAVPPPDTVQQAKKIDEEILQEVINMGFDRNHLIESLRNRTQNDGTVTYYLILDNRFRASSGYLGAEFQETMEGTPRMHPAESVASPVSHRLPGLMEYQGVGLRSQYPVERKWALGLQSRAHPREIMTEVLKALQDLNVCWKKIGHYNMKCRWVPNSSADGMLSNSMHDNNYFGDESSIIENEAAVKSPNVVKFEIQLYKTRDDKYLLDLQRVQGPQFLFLDLCAAFLAQLRVL
Turning to B2, the binding entry in experiment [2] is “binds”.
